Data source: PubChem BioAssay AID1224828 (NIAID, 2016)
The deposit covers about 17,000 reagents; shown is a part drawn at random. 762 of them (4.5%) count as active. 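Active calls include both raised and lowered p65 entry, mostly lowered; wells with fewer than 50 cells lack a z-score.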 Raw values are not corrected between plates. A number with no mark means an inactive call. Reagents against one gene are numbered here.

Screen: 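Find genes required for NF-kappaB p65 moving into the nucleus after LPS in mouse macrophages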 (primary screen)
Cell system: mouse RAW264.7 G9 macrophage reporter cells (GFP-p65, Tnf promoter-mCherry)
Reagent: siRNA pool against mouse genes, 100 nM
Time to read-out: 2 days siRNA transfection, then 40 min LPS before fixation
Challenge: LPS (Salmonella minnesota R595) at 10 ng/ml
Measured: 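Imaged p65 nuclear translocation ratio, normalised to the plate median, converted to robust z-scores and averaged across two replicates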
Direction: p65 translocation robust z-score: higher = more nuclear NF-kappaB p65 after LPS than the plate median; nuclear/cytoplasmic p65 ratio: higher = more nuclear NF-kappaB p65
Rule for the call: 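Called active when z exceeds 3.3 or falls under -1.56 (median of Tlr4 controls), giving activity score of at least 50; no calls for control wells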
Meaning of the calls: active = hit (p65 shift raised or lowered); inactive = no clear change

gene	reagent	p65 translocation robust z-score	nuclear/cytoplasmic p65 ratio, rep 1	nuclear/cytoplasmic p65 ratio, rep 2	low cell count flag
Oas1h	1	-0.02	1.71	1.52	enough cells to score
Efna2	1	-0.73	1.32	1.32	enough cells to score
Ctf1	1		1.12	1.12	fewer than 50 cells per well; well left out of scoring
Mbl1	1	0.82	1.84	1.67	enough cells to score
Cux1	1	0.52	1.56	1.44	enough cells to score
Cd33	1	-0.43	1.51	1.74	enough cells to score
Phlda3	1	1.58	1.65	1.68	enough cells to score
Rps6kb2	1	-0.33	1.56	1.39	enough cells to score
Rbms2	1	0.82	1.66	1.61	enough cells to score
Ncr1	1	1.33	1.64	1.49	enough cells to score
Or10al4	1		1.53	1.57	fewer than 50 cells per well; well left out of scoring
Magohb	1		1.39	1.16	fewer than 50 cells per well; well left out of scoring
Farsb	1	-0.22	1.51	1.48	enough cells to score
Crybg1	1	-0.13	1.56	1.69	enough cells to score
Myoc	1	-0.04	1.33	1.44	enough cells to score
Snx33	1	0.14	1.39	1.38	enough cells to score
Hif3a	1	0.68	1.37	1.48	enough cells to score
Or4f61	1	2.73	1.99	1.81	enough cells to score
Grin3a	1	-0.91	1.12	1.28	enough cells to score
Tnxb	1	-0.21	1.61	1.37	enough cells to score
Smurf1	1	1.16	1.78	1.78	enough cells to score
Atp23	1	2.95	1.58	1.8	enough cells to score
Il2rg	1	0.76	1.59	1.47	enough cells to score
Tafa5	1	0.67	1.84	1.47	enough cells to score
Uck2	1	1.43	1.85	1.62	enough cells to score
Eipr1	1	0.35	1.42	1.49	enough cells to score
Ttc36	1	-0.63	1.48	1.74	enough cells to score
Calr3	1	0.54	1.72	1.82	enough cells to score
Helt	1	0.32	1.64	1.64	enough cells to score
E2f3	1	2.24	1.94	1.53	enough cells to score
Dhrs7	1	0.53	1.64	1.63	enough cells to score
Flrt1	1	-1.27	1.39	1.62	enough cells to score
Orc6	1	-0.99	1.34	1.26	enough cells to score
Cstpp1	1	-0.98	1.4	1.32	enough cells to score
Tmem150c	1		1.27	1.32	fewer than 50 cells per well; well left out of scoring

Taken from above.
Atp23, p65 translocation robust z-score → 2.95
Cstpp1, low cell count flag: enough cells to score
Il2rg, nuclear/cytoplasmic p65 ratio, rep 2 → 1.47
Calr3, nuclear/cytoplasmic p65 ratio, rep 2: 1.82
For “nuclear/cytoplasmic p65 ratio, rep 1”, Tmem150c reads 1.27
Value of Helt under “low cell count flag”: enough cells to score

Continued:
gene	reagent	p65 translocation robust z-score	nuclear/cytoplasmic p65 ratio, rep 1	nuclear/cytoplasmic p65 ratio, rep 2	low cell count flag
Gngt1	1	1.24	1.82	1.73	enough cells to score
Polr1h	1	-0.7	1.33	1.16	enough cells to score
Pnck	1		1.37	1.08	fewer than 50 cells per well; well left out of scoring
Pnpo	1	-0.2	1.32	1.67	enough cells to score
Sh3pxd2b	1	1.25	1.8	1.61	enough cells to score
Ankrd17	1	1.3	1.79	1.89	enough cells to score
Epha2	1	0.72	1.72	1.54	enough cells to score
Zc3h6	1		1.11	1.18	fewer than 50 cells per well; well left out of scoring
Zc3h6	2		1.29	1.41	fewer than 50 cells per well; well left out of scoring
Gm38410	1	0.44	1.55	1.54	enough cells to score
Ang2	1	0.05	1.66	1.6	enough cells to score
Ube2d1	1	0.28	1.6	1.49	enough cells to score
Dnajc15	1	2.26	1.77	1.89	enough cells to score
Nup155	1	-0.17	1.78	1.43	enough cells to score
Kctd15	1	-0.11	1.55	1.4	enough cells to score
Upf1	1	-1.02	1.4	1.35	enough cells to score
Tnnt1	1	-0.44	1.41	1.5	enough cells to score
Neurl1b	1	-1.05	1.16	1.38	enough cells to score
Tmx1	1	0.16	1.41	1.2	enough cells to score
Slc25a39	1		1.04	1.34	fewer than 50 cells per well; well left out of scoring
Ptpro	1	0.22	1.62	1.48	enough cells to score
Or6c210	1		1.34	1.11	fewer than 50 cells per well; well left out of scoring
Or52p1	1	0.09	1.47	1.27	enough cells to score
Zfp750	1	1.25	1.5	1.75	enough cells to score
Ankrd9	1	-1.44	1.24	1.62	enough cells to score
Pdzd11	1	2.17	1.52	1.92	enough cells to score
Nmral1	1	0.91	1.67	1.57	enough cells to score
Tex19.1	1		1.42	1.27	fewer than 50 cells per well; well left out of scoring
Ifi27	1	-1.07	1.37	1.66	enough cells to score
Vmn1r195	1	-1.01	1.29	1.11	enough cells to score
Cyp1a2	1	-0.79	1.41	1.24	enough cells to score
S100a6	1	-1.15	1.36	1.35	enough cells to score
Nus1	1	-0.08	1.55	1.78	enough cells to score
Slc26a11	1		1.34	1.9	fewer than 50 cells per well; well left out of scoring
Trim34a	1	1.59	1.62	1.32	enough cells to score
Frrs1	1	-0.13	1.48	1.14	enough cells to score
Esrp1	1	0.48	1.67	1.37	enough cells to score
4930503L19Rik	1		1.26	1.32	fewer than 50 cells per well; well left out of scoring
Ghrh	1	-0.21	1.29	1.46	enough cells to score
Stmn4	1	-0.97	1.28	1.13	enough cells to score
